The nature of this assay: qHTS Assay for Lipid Storage Modulators in Drosophila S3 Cells.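 On cell number change: cells counted by Cell Tracker Red CMTPX staining in the red channel.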 To be noted: BODIPY lipid droplet fluorescence, 18-24 h; for cell number change: measured here: cell count max response, cells fed with added oleic acid. The method in brief:
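Drosophila S3 cells got compounds at several concentrations plus oleic acid (400 uM solution). Laser-scanning cytometry with 488 nm excitation read lipid droplets at 500-530 nm and cells at 575-640 nm. Percent activity was relative to 20 uM Triacsin C.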
On the technique in general: qHTS replaces the single test concentration by a dilution series.

Where [1] appears, read: measured here: cell number channel AC50, cells fed with added oleic acid.
[2] abbreviates: measured here: lipid fluorescence (Fed channel) AC50, cells fed with added oleic acid.

Some of the results follow. Further columns of the screen follow, without active or inactive calls. The list favours compounds with an active or inconclusive main result. Potencies come from curve fits of mixed quality, noted in brackets.

Data on 58 compounds can be found in PubChem BioAssay AID2685 (National Center for Advancing Translational Sciences (NCATS), 2010).

What is called AC50 is the concentration giving half of the maximal activity seen. Read a high AC50 as weaker potency.

For `CC(=O)c1ccc(NC(=O)C(C)Oc2ccc(N(C)S(=O)(=O)c3ccc(C)cc3)cc2)cc1` (stereo not given), the cell number change is -54.4%. Moreover, the AC50 under setting [1] was 9.2 µM [falling, partial curve]. Besides, the AC50 under setting [2] was 32.6 µM [falling, single point].
As to `NNC(=O)c1ccc(Cn2cc(Cl)cn2)o1`, the cell number change came to 34.7%. Also, under setting [2], the AC50 was 32.6 µM [rising, single point].
Consider `COc1cccc(NC(=O)CN(C)C(=O)Cc2n[nH]c(=O)c3ccccc23)c1`, for which the cell number change stood at 34.2%. Moreover, the AC50 under setting [1] was 20.6 µM [rising, single point]. Further, under setting [2], the AC50 is 20.6 µM [rising, partial curve, poor fit].
In the case of `CC1=NN(c2ccc(C(=O)O)cc2)C(=O)/C1=C\c1ccc(OC(=O)c2cccs2)cc1`, the cell number change stood at 44.4%.
For the compound `CN1C(=O)c2cccc(NC(=O)C3CCCCC3)c2C1=O`, the cell number change turned out to be 3.62%. Also, the AC50 under setting [2] was 1.03 µM [rising, full curve, poor fit].
Regarding `CN1C(=O)N(CC(=O)Nc2cccc(S(=O)(=O)N(C)c3ccccc3)c2)C(=O)C12CCCCC2`, the cell number change was determined as 225%. In addition, under setting [1], the AC50 is 29.1 µM [rising, single point].
`O=Cc1c(-[n+]2ccccc2)nc([O-])n1-c1ccccc1`: the cell number change is -57.3%. Further, under setting [1], the AC50 is 11.6 µM [falling, partial curve]. In addition, the AC50 under setting [2] was 29.1 µM [falling, single point].
Take `Cn1ccnc1Sc1nc(Nc2cccc(Cl)c2)nc(N2CCOCC2)n1`: the cell number change was -6.41%. Besides, the AC50 under setting [2] is 18.4 µM [falling, partial curve, poor fit].
As for `Cc1ccc(Nc2c([N+](=O)[O-])cc(C(=O)N3CC(=O)Nc4ccccc43)cc2[N+](=O)[O-])c(C)c1`, the cell number change was -28.8%. Moreover, the concentration at half-maximal activity (AC50) under setting [2] was 20.6 µM [falling, single point].
For the compound `C[C@@H]1C[C@H]2[C@@H]3C[C@H](F)C4=CC(=O)C=C[C@]4(C)[C@@]3(F)[C@@H](O)C[C@]2(C)[C@@]1(O)C(=O)COC(=O)C(C)(C)C`, the cell number change is -37.9%. In addition, the half-maximal activity concentration (AC50) under setting [1] is 5.17 µM [falling, partial curve]. The AC50 under setting [2] is 5.8 µM [falling, partial curve].
With `Cc1ccc(OCC(=O)Nc2ccc(C)c(F)c2)c([N+](=O)[O-])n1`, the cell number change is 28.5%.
On to `COCCN(CC(=O)Nc1cc(Cl)ccc1-n1cncn1)Cc1nc2ccccc2c(=O)[nH]1`, for which the cell number change is -5.76%.
On to `Cc1c(/C=N/NC(=O)c2ccc(Br)o2)cnn1C`, for which the cell number change was -42.5%. Under setting [1], the AC50 was 29.1 µM [falling, single point]. For the same compound, the AC50 under setting [2] was 29.1 µM [falling, single point].
Consider `COc1cc(CNc2ccc(N3CCN(C(C)=O)CC3)cc2)ccc1OCc1ccccc1`, for which the cell number change was determined as 19.1%. Also, the AC50 under setting [2] was 0.082 µM [falling, full curve, poor fit].
In the case of `CC1(C)CC(=O)C2=C(C1)N=c1s/c(=C/c3ccc(F)c(F)c3)c(=O)n1C2c1ccc(F)cc1` (stereo not given), the cell number change was -104%. Further, the AC50 under setting [1] is 20.6 µM [falling, partial curve]. Besides, the AC50 under setting [2] is 29.1 µM [falling, single point].
In the case of `O=C(NC1CCN(C(=O)NCc2ccccc2)CC1)c1ccc(F)cc1`, the cell number change is 18.5%. In addition, under setting [2], the AC50 was 2.91 µM [rising, single point].
As for `O=C(NCCc1ccccc1)C1CCN(S(=O)(=O)c2ccc(-c3nn[nH]n3)cc2)CC1`, the cell number change is -15.9%. Also, the AC50 under setting [2] was 3.66 µM [falling, full curve].
Regarding `CCOc1ccc2nc(SCC(=O)Nc3cc4c(cc3C(C)=O)OCO4)[nH]c2c1`, the cell number change was -20.5%. Besides, the AC50 under setting [2] is 25.9 µM [falling, single point].
In the case of `CNC(=O)COC(=O)c1cccnc1SC`, the cell number change was determined as 13.1%.
Take `O=c1[nH]c(Nc2ccc3c(c2)OCCO3)nnc1Cc1ccccc1`: the cell number change is 30.2%. Besides, the concentration at half-maximal activity (AC50) under setting [1] is 2.31 µM [rising, full curve, poor fit]. For the same compound, the AC50 under setting [2] was 0.731 µM [rising, single point].
Regarding `O=C(O)C1CCCCC1C(=O)Nc1nc(-c2ccc(Cl)s2)cs1` (stereo not given), the cell number change is 8.2%. Under setting [2], the AC50 was 0.00461 µM [rising, full curve, poor fit].
For the compound `CCC(C)(C)NC(=O)C(c1cccnc1)N(C(=O)c1csnn1)c1ccccc1` (stereo not given), the cell number change is 10.4%.
For the compound `O=C(N/N=C/c1ccccc1)c1sccc1OCc1ccc(F)cc1`, the cell number change is -15.2%. Besides, the AC50 under setting [2] is 29.1 µM [falling, single point].
Consider `CN(C)S(=O)(=O)Oc1ccc(C(=O)Nc2cccc(C(F)(F)F)c2)cc1`, for which the cell number change was -36.2%. Further, the AC50 under setting [2] is 0.116 µM [falling, full curve, poor fit].
Turning to `CCCCCCC1C(C#N)=C(N)OC2=C1C(=O)CC(C)(C)C2` (stereo not given), the cell number change is -35.9%. Under setting [1], the AC50 was 18.4 µM [falling, partial curve]. Further, the AC50 under setting [2] was 14.6 µM [falling, partial curve].
On to `COc1cc(NC(=O)c2cccs2)c(C(=O)OCC(=O)NC(=O)NC(C)(C)C)cc1OC`, for which the AC50 is 1.84 µM [rising, partial curve] under setting [1] and 0.092 µM [rising, full curve, poor fit] under setting [2].
On to `O=c1c(Cl)cc(Cl)nn1-c1ccccc1`, for which the cell number change was -13.1%. Moreover, the AC50 under setting [2] is 6.51 µM [falling, full curve].
Consider `Fc1ccccc1/C=N/Nc1nc2ccccc2o1`, for which the cell number change came out at 3.52%. Also, the AC50 under setting [2] is 6.51 µM [falling, single point].
Turning to `CCOc1nc(-c2ccc(Cl)cc2)nc2ccccc12`, the AC50 is 6.51 µM [falling, single point] under setting [1] and 6.51 µM [falling, single point] under setting [2].
Consider `O=S(=O)(NC1=NCCCCC1)c1ccc(F)cc1`, for which the cell number change came to 18.7%.
Consider `O=C(c1ccco1)N1CCN(C(=O)c2ccc(Cn3cc(Br)cn3)o2)CC1`, for which the cell number change was -4.16%. Moreover, the half-maximal activity concentration (AC50) under setting [2] was 4.11 µM [rising, full curve].
Take `CCOC(=O)C1CCCN(S(=O)(=O)c2ccc(S(N)(=O)=O)cc2)C1` (stereo not given): the cell number change turned out to be 2.03%. In addition, the AC50 under setting [2] is 0.0103 µM [rising, full curve, poor fit].
Consider `Cc1ccc(C)c(NC(=O)C2CCCN(S(=O)(=O)c3c(C)noc3/C=C/N(C)C)C2)c1` (stereo not given), for which the cell number change amounted to 5.9%. In addition, the AC50 under setting [2] is 29.1 µM [rising, single point].
Regarding `CC1CCN(c2c(NCC3CCC(C(=O)NCCc4ccc(Cl)cc4)CC3)c(=O)c2=O)CC1` (stereo not given), the cell number change was found to be 28.9%. Under setting [1], the AC50 was 0.184 µM [rising, full curve, poor fit]. Besides, under setting [2], the AC50 was 0.206 µM [rising, full curve].
As to `CCOc1cc(CNCc2ccncc2)cc(Br)c1OCc1ccccc1F`, the cell number change was -53.9%. Besides, the AC50 under setting [1] was 25.9 µM [falling, single point]. Also, the AC50 under setting [2] is 1.16 µM [falling, partial curve, poor fit].
As for `CNC(=O)c1csc(-c2ccncc2)n1`, the AC50 under setting [2] was 2.06 µM [rising, partial curve].
For `CCCc1nnc(SCC(=O)Nc2nc(C)cs2)n1CCOC`, the cell number change is 12.5%. Moreover, under setting [2], the AC50 is 0.116 µM [rising, single point].
In the case of `Cc1ccc(S(=O)(=O)N2CCN(C(=O)COC(=O)/C=C/c3ccccc3[N+](=O)[O-])CC2)c(C)c1`, the cell number change was determined as 17.5%.
As to `COc1ccc(N2C(=O)C3CCCN3C2c2ccc(C)cc2)cc1` (stereo not given), the cell number change is -12.7%. Moreover, under setting [2], the AC50 is 0.0651 µM [falling, full curve, poor fit].
With `O=C(COC(=O)C1CCCCC1)Nc1ccc(S(=O)(=O)N2CCOCC2)cc1`, the cell number change was determined as 30.3%. For the same compound, the AC50 under setting [1] was 3.66 µM [rising, full curve]. Also, the half-maximal activity concentration (AC50) under setting [2] was 29.1 µM [rising, single point].
`Cc1cccc(NC(=O)c2ccccc2NC(=O)c2ccccc2)n1`: the cell number change is -0.708%. Further, the half-maximal activity concentration (AC50) under setting [2] is 29.1 µM [rising, single point].
Turning to `CC(C)c1ccc(C(=O)CSc2n[nH]c(-c3ccncc3)n2)cc1`, the cell number change was 143%. Besides, the AC50 under setting [1] was 29.1 µM [rising, single point].
Consider `COC(=O)c1ccc(CN2CCCC(CCC(=O)NCc3ccc(C)o3)C2)cc1` (stereo not given), for which the cell number change was determined as 14.9%. Besides, the AC50 under setting [2] was 1.84 µM [rising, partial curve].
As to `O=C(Cn1nnc(-c2ccccc2F)n1)Nc1ccc2c(c1)OCO2`, the cell number change is -5.78%.
With `Nc1nnc(SCC(=O)Nc2ccc3c(c2)OCCO3)s1`, the cell number change came out at 24.8%. Under setting [2], the AC50 is 29.1 µM [rising, single point].
Regarding `CN(NS(C)(=O)=O)c1c(C#N)c(C(F)(F)F)nn1C`, the AC50 under setting [2] was 4.61 µM [falling, single point].
Take `CCOC(=O)c1c(C)n(OC)c2ccc3c(no[n+]3[O-])c12`: the cell number change was 23.7%. Also, the concentration at half-maximal activity (AC50) under setting [2] was 0.517 µM [falling, single point].
As for `CC(O)CNCCOc1cccc(Oc2ccccc2)c1` (stereo not given), the cell number change is -43.7%. Moreover, the AC50 under setting [1] was 6.51 µM [falling, partial curve]. Besides, the AC50 under setting [2] was 6.51 µM [falling, full curve].
As to `CCn1c(SCC(=O)c2c(N)n(C)c(=O)n(C)c2=O)nc2sc(C)c(C)c2c1=O`, the cell number change was 73.2%. Under setting [1], the AC50 is 16.4 µM [rising, single point].
Turning to `Cc1cccc(N2C(=O)CC(Sc3nccc(C)n3)C2=O)c1` (stereo not given), the cell number change came to 21.6%. Further, under setting [2], the half-maximal activity concentration (AC50) was 6.51 µM [rising, single point].
Consider `CSCCC(NC(=O)c1ccccc1Cl)C(=O)NCC(c1cccs1)N(C)C` (stereo not given), for which the cell number change was -8.33%.
For `CCC(C)c1ccccc1OCCn1ccnc1` (stereo not given), the cell number change was found to be 50.5%. Also, the AC50 under setting [1] is 1.16 µM [rising, partial curve].
Regarding `Cc1cc(C(=O)Cn2nc(C(=O)O)c3ccccc3c2=O)c(C)n1CC(F)(F)F`, the cell number change was -9.86%.
Consider `CCOC(=O)N1CCC(Nc2c(-c3ccc(C)c(C)c3)c(=O)c2=O)CC1`, for which the AC50 under setting [2] is 16.4 µM [falling, partial curve, poor fit].
Take `O=C(NCc1cccs1)C1CCN(S(=O)(=O)c2ccc(Br)s2)CC1`: the cell number change worked out at 58.5%. Further, the concentration at half-maximal activity (AC50) under setting [1] was 20.6 µM [rising, single point].
For the compound `CCN(CC)CCNCc1ccc(Br)cc1OCC(=O)NCc1ccccc1`, the cell number change is -2.12%.
Regarding `CN(c1ccc(OCC(=O)Nc2ccc3[nH]c(=O)[nH]c3c2)cc1)S(=O)(=O)c1ccc(Cl)cc1`, the cell number change is 50.1%. Moreover, under setting [1], the AC50 is 25.9 µM [rising, single point]. The AC50 under setting [2] was 5.8 µM [falling, single point].
For `CC1(C)CC(=O)C2=C(C1)N(c1cccnc1)C(N)=C(C#N)C2c1cccs1` (stereo not given), the cell number change came to 5.36%. For the same compound, under setting [2], the concentration at half-maximal activity (AC50) is 20.6 µM [rising, single point].
